Source: PubChem BioAssay (NCATS)
The list shows a part of the results. These are further read-outs of the screen, such as a control signal, another cell line or another target. No call is given for them. The list favours compounds with an active or inconclusive main result. Words in brackets tell the shape of the fitted curve; partial curves, single points and poor fits give uncertain potencies.

Test: A High-Content qHTS Against Drug Library for the Identification of Small Molecules that Inhibit DYT1 Early Onset Primary Dystonia-Associated Cell Pathology (AID 1645839)
Details: HEK293 Flp-In EGFP-delE TorsinA, punctate imaging, 48 h; measured here: cell count cytotoxicity
Method in brief: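 Flp-In T-REx 293 cells with tetracycline-inducible EGFP-delE hTOR1A (WT EGFP-hTOR1A as reference), 800 cells/well; compound added with tetracycline, 48 h at 37 C. Fixed, permeabilized cells imaged; %pathology (punctate TorsinA) primary, cell count counterscreen.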
For `CC1(C)CC/C(=C/c2ccc(Cl)cc2)C1(O)Cn1cncn1` (stereo unspecified), the AC50 was 35.5 µM [rising, partial curve, poor fit].
For `COc1cc(C[C@@H](C)N)c(OC)cc1Br`, the AC50 was 8.91 µM [falling, partial curve, poor fit].
For `CCc1cc(OC)c(C[C@H](C)N)cc1OC`, the AC50 was 70.8 µM [falling, single point].
In the case of `Clc1ccc(C(OCCN2CCCCC2)c2ccccc2)cc1` (stereo unspecified), the AC50 is reported as 22.4 µM [falling, single point].
With `CN(C)CCc1ccc(O)cc1` the AC50 was 12.6 µM [rising, partial curve, poor fit].
In the case of `CCOC(C(=O)OCCN(C)C)(c1ccccc1)c1ccccc1`, the AC50 is reported as 7.08 µM [falling, partial curve, poor fit].
In the case of `CCCN(CCC)c1c([N+](=O)[O-])cc(S(N)(=O)=O)cc1[N+](=O)[O-]`, the AC50 is reported as 1.12 µM [falling, full curve, poor fit].
For `CN1C2CCC(C)(C)C1CC(OC(=O)C(O)(c1cccs1)c1cccs1)C2` (stereo unspecified), the AC50 was 35.5 µM [falling, single point].
For `CN1CCC(N(Cc2ccccc2)c2ccccc2)CC1`, the AC50 was 22.4 µM [falling, partial curve, poor fit].
With `COc1ccc2c3c1O[C@H]1[C@@H](O)C=C[C@H]4[C@@H](C2)N(C)CC[C@@]341` the AC50 was 31.6 µM [falling, single point].
For `CN1[C@@H]2CC[C@H]1CC(OC(=O)c1cc(Cl)cc(Cl)c1)C2` (stereo partly specified), the AC50 was 35.5 µM [falling, single point].
